Test results taken from patent US10465854B2, “Temperature-stable paraffin inhibitor compositions” (Ecolab USA Inc., priority 2016, dated 2019).
Read-outs that look alike come from different tables or passages of the source. Some results were stated once for a whole list of compounds, not compound by compound.

Experiment: Pour point observation according to ASTM D-97
Type: physicochemical
From the text: A number of working examples were composed and tested for flow indicative of solidification point depression (e.g., pour point temperatures). The compositions tested herein are said to “pour or flow” at the indicated temperature when the PIC of each working example, vertically at rest on a substantially horizontal surface the cylindrical container (radius 1 inch, height 2 inches), flows observably within about 10 seconds when tipped to a substantially horizontal position. This amount of flow is known to be sufficient to indicate that the composition is pourable or pumpable for use in the field, where such concentrates are applied to one or more crude oil transportation or storage systems. The flowing samples are said to have a pour point at temperatures where the flow is observed. The pour point is above the solidification temperature for a given sample. The effect on pour point was observed according to ASTM D-97 test method (including storage for a half hour in a freezer set the associated temperature prior to observation for pour or flow).
The effect on pour point was observed according to ASTM D-97 test method (storage for at least one half hour in a freezer set at a specific temperature (e.g., −60° C.)). The specific low Log P molecules, amounts thereof, amounts of PI polymer, with the balance comprising a refined petroleum distillate or solvent such as HAN; and pour point observations according to ASTM D-97 are listed in Table 2 below.
A comparison of pour points was made between control samples having no low Log P molecules and samples including low Log P molecules to determine the total amount of pour point depression.
The relative amounts of pour point depression of PICs having combination nonyl phenol formaldehyde resin and alpha olefin/maleic anhydride (OMAC) copolymer PIs (specifically OMAC amide polymers), were tested by the ASTM D-97 method. A comparison of pour points was made between control samples having no low Log P molecules and samples including low Log P molecules to determine the total amount of pour point depression. […]

O=C1CCCO1 [Butryolactone, butyrolactone]
depressed the pour point by: at least 55 °C

CO [Methanol]
depress the pour points by: over 40 °C

n-ethyl formamide
depressed the pour point by (5 wt % in PICs with 25 wt % FloZol 2252, versus working example 20): at least 55 °C
